Square brackets hold non-standard residues; d marks the D form.
Experiment: general procedure: peptide synthesis; DIC, HOBt; cyclization PyBOP/HOBt/DIEA
Conditions: whole synthesis

cyclo([dF]ATRL[dF]PVRL) (SMILES CC(C)C[C@@H]1NC(=O)[C@H](CCCNC(=N)N)NC(=O)[C@H](C(C)C)NC(=O)[C@@H]2CCCN2C(=O)[C@@H](Cc2ccccc2)NC(=O)[C@H](CC(C)C)NC(=O)[C@H](CCCNC(=N)N)NC(=O)[C@H]([C@@H](C)O)NC(=O)[C@H](C)NC(=O)[C@@H](Cc2ccccc2)NC1=O)
isolated yield: 25.0%
final HPLC purity (HPLC): 98.2%
